Literature values, collected in patent US20210177955A1, “IMMUNOGENIC HETEROCLITIC PEPTIDES FROM CANCER-ASSOCIATED PROTEINS AND METHODS OF USE THEREOF” (priority 2017, published 2021).

Tested on: CD8+ T lymphocyte response
Settings: wild-type counterpart, cited from earlier work
[1] = HLA Allele A*24:02, Table 14, uterine cancer
[2] = HLA Allele A*24:02, Table 16, ovarian cancer
[3] = HLA Allele A*02:01, Table 14, uterine cancer
[4] = HLA Allele A*02:01, Table 16, ovarian cancer
[5] = HLA Allele A*02:01, Table 22, head and neck cancer
[6] = HLA Allele A*02:01, Table 18, LGG
[7] = HLA Allele B*07:02, Table 14, uterine cancer
[8] = HLA Allele B*07:02, Table 16, ovarian cancer
[9] = HLA Allele B*07:02, Table 20, CRC

Measured: Wild-Type Peptide Immunogenic?

KLHL7
Yes: [1] | [2] | HLA Allele A*24:02, Table 18, LGG

PRAME
Yes: [3] | [4] | [5]

TERT
Yes: [3] | [4] | [5]

SART3
Yes: [3] | [4] | [6]

hTERT
Yes: [6]

CEACAM5^1
Yes: [3] | [4] | [5] | HLA Allele A*03:01, Table 14, uterine cancer | HLA Allele A*03:01, Table 16, ovarian cancer | HLA Allele A*03:01, Table 18, LGG | HLA Allele A*03:01, Table 20, CRC | HLA Allele A*03:01, Table 22, head and neck cancer | [1] | [2] | HLA Allele A*24:02, Table 20, CRC | HLA Allele A*24:02, Table 22, head and neck cancer | [7] | [8] | [9] | HLA Allele B*07:02, Table 22, head and neck cancer

RNF43
Yes: [7] | [8] | HLA Allele B*07:02, Table 18, LGG | [9]

Where two headings read alike, the source gives them in different places.
